Two molecules from PMC11221361 can be followed below.

Sequences of proteins named here, by UniProt entry; tags and fusion partners are left off.
UniProt P36012: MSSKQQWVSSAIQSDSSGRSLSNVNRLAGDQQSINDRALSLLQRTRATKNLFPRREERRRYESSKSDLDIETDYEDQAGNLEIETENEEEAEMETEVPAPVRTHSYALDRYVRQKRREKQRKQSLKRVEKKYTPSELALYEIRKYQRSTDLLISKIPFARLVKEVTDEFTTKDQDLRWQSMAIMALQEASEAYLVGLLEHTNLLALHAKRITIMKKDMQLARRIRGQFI

No constants are given. Whether binding was seen depends on the method and setting. In cells and extracts the contact can be indirect. Some binding calls cover weakened binding; strength is not graded here. Sequences can lack the tags named with a protein.

For test [1], the target named is T1, 9xmyc-tagged Kre6 (S. cerevisiae) (UniProt P32486).
T1 sequence: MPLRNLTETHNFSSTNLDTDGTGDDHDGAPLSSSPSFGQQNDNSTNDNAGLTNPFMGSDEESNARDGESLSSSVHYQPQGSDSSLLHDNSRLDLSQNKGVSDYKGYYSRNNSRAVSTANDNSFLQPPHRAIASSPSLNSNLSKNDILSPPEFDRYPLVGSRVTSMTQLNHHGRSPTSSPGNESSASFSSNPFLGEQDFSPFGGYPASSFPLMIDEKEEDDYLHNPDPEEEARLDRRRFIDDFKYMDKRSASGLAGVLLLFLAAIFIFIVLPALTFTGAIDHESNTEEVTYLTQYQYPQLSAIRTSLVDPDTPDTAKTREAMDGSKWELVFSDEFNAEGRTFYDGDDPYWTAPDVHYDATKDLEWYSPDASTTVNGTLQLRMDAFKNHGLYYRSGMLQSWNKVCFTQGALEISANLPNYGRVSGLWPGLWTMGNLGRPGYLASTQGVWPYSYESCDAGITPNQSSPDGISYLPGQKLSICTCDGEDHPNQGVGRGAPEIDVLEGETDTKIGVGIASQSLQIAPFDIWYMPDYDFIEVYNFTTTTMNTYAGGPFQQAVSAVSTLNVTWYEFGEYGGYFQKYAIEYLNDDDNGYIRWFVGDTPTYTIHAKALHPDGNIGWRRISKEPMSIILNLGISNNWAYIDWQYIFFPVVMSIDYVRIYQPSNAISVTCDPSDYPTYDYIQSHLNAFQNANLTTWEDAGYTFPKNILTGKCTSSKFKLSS
In words: co-IP; myc-tagged Kre6 or Okp1 precipitated from yeast whole-cell lysate with anti-myc overnight, then Protein G dynabeads for 2 h at 4°C; same IP lysis buffer; washed 3 times; Western blot for 3xHA-Cse4. Background: A western blot detects proteins with antibodies after separation by electrophoresis.

Test [2] deals with 3xHA-tagged Cse4^CENP-A (S. cerevisiae) (UniProt P36012). In words: co-IP; HA-tagged Cse4 precipitated from yeast whole-cell lysate with anti-HA agarose overnight; IP lysis buffer 50 mM HEPES, 200 mM sodium acetate, 0.25% NP-40, 1 mM EDTA, 5 mM magnesium acetate, 5% glycerol, 3 mM DTT; washed 3 times; Western blot with anti-myc and anti-HA.

Regarding “3xHA-tagged Cse4^CENP-A (from UniProt P36012 1-229)”, the binding entry in test [1] was “binds”.

B1: 9xmyc-tagged Kre6 (protein, UniProt P32486 1-720)
chain: MPLRNLTETHNFSSTNLDTDGTGDDHDGAPLSSSPSFGQQNDNSTNDNAGLTNPFMGSDEESNARDGESLSSSVHYQPQGSDSSLLHDNSRLDLSQNKGVSDYKGYYSRNNSRAVSTANDNSFLQPPHRAIASSPSLNSNLSKNDILSPPEFDRYPLVGSRVTSMTQLNHHGRSPTSSPGNESSASFSSNPFLGEQDFSPFGGYPASSFPLMIDEKEEDDYLHNPDPEEEARLDRRRFIDDFKYMDKRSASGLAGVLLLFLAAIFIFIVLPALTFTGAIDHESNTEEVTYLTQYQYPQLSAIRTSLVDPDTPDTAKTREAMDGSKWELVFSDEFNAEGRTFYDGDDPYWTAPDVHYDATKDLEWYSPDASTTVNGTLQLRMDAFKNHGLYYRSGMLQSWNKVCFTQGALEISANLPNYGRVSGLWPGLWTMGNLGRPGYLASTQGVWPYSYESCDAGITPNQSSPDGISYLPGQKLSICTCDGEDHPNQGVGRGAPEIDVLEGETDTKIGVGIASQSLQIAPFDIWYMPDYDFIEVYNFTTTTMNTYAGGPFQQAVSAVSTLNVTWYEFGEYGGYFQKYAIEYLNDDDNGYIRWFVGDTPTYTIHAKALHPDGNIGWRRISKEPMSIILNLGISNNWAYIDWQYIFFPVVMSIDYVRIYQPSNAISVTCDPSDYPTYDYIQSHLNAFQNANLTTWEDAGYTFPKNILTGKCTSSKFKLSS
As for B1, the binding entry in test [2] is given as “binds”.
